Experimental findings from PMC12677461 are described below.

Amino acid sequences for entries named in this document (tags omitted).
UniProt P18872: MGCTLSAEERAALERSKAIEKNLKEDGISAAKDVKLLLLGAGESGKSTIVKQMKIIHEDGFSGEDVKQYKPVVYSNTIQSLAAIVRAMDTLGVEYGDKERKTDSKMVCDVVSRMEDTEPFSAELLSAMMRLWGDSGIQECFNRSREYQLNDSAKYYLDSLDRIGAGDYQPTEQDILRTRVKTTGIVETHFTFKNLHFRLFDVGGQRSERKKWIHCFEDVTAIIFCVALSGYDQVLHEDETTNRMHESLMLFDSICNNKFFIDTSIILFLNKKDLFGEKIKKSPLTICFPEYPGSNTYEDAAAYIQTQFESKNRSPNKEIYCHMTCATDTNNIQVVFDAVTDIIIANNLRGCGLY

In assay [1] the target is Gαo, alpha subunit of the heterotrimeric G protein Go (native, mouse brain) (mouse (endogenous in BALB/c mouse brain)) (UniProt P18872). In words: co-IP; as a1 but lysate with 100 µM GTPγS (Gαo activated), 4 °C, 2 h; Gαo precipitated with anti-Gαo sc-13532 cross-linked to protein A/G agarose; read by protein stain and western blot. (In general: In western blotting, separated proteins are transferred to a membrane and probed.)

Assay [2] shares this target. In words: co-IP; mouse brain lysate (2 mg/ml in IP buffer: 50 mM HEPES pH 7.4, 100 mM NaCl, 1 mM EDTA, 3 mM EGTA, 10 mM MgCl2, 1% Triton X-100) with 100 µM GDP, 4 °C, 2 h; Gαo precipitated with anti-Gαo sc-13532 cross-linked to protein A/G agarose; read by protein stain and western blot.

These are yes or no findings as the source states them, for the method shown. In cells and extracts the contact can be indirect. Some entries that bind do so weakly or less than the wild type.

B1: GPRIN-1 (G protein-regulated inducer of neurite outgrowth 1) (protein, UniProt Q3UNH4 1-932)
chain: MRDCCSSPKAIPAPPRHALDQSLGMDPRHTSSSGAAEGASCSERPAGSLACPSPNCSPLPETPRAHGALTSDNSGTTLFGKPEPMSSAEATPTASEIRNPVFSGKMDGNSLKQADSTSTRKEEAGSLRNEESMLKGKAEPMIYGKGEPGTVGRVDCTASGAENSGSLGKVDMPCSSKVDIVSPGGDNAGSLRKVETISSGKMDPKTENVMHSRRERPGSTGEGDLVSLRENDMKPPDNTDSASTKKTDPEFSGKLTPGSSGKTELVSSVTVAPVTSENVNPVCSGGAGPAAVGNSETLSSVKKDPQLLGKKEAVSSGEGGSVSVRMAETVSARQPEGMFPAKTDSTSSNSTGPSGRADPVSLRNSELVSPVKPERLSSGQAERVSLVKTETLSSGKEDPRSSRRVDHTTVTGNMQTSQKGNPESSGKTDLGSSSSGDTRSLGTWGSLSAAKAEVTEGKGDPQPWKKASLPASEKTDPLASSKAGSASQGKAETVSPGEVDAMTLGKTVPTSSGKTALVSPGKVDLMTSERAEGIPELQASEKGNPVNSTRVDTGATGSTEPKSGVKVITQIPGATSPGKVETPSLQKEQPQLSEKTDPSRKVDPPTTVEPVSLGKADSASPSPRKAESQTSAKTVPQAPDKATSSLRQSDGTPYSSAQPQRDTRSIGSLPEREPSASTSQKDLAAAAAQKSPSAEAAAPPPGPRTRDNFTKAPSWDAGAPPPREDAGTQAGAQACVSVAVSPMSPQDGAGGPAFSFQAAPRAPSPAPRPPSRRDAGLQVSLGAAETRSVATGPMTPQAAAPPAVPPVFPEVRVRPGSVLAAALAPQEATEPVRDVSWDEKGMTWEVYGASMEVEVLGMAIQKHLERQIEEHGRQGAPAPAPPPAVRAGPGRAGSVRTAPAEGAAKRPPGLFRALLQSVRRPRCCSRAGPTAE
For the molecule B1, the binding result was “binds” in assay [1] and “no binding (condition: lysate with 100 µM GDP)” in assay [2].
